Measured values: PMC13334641
Results are given in words; binding and its absence hold for the method and conditions named. In cells and extracts the contact can be indirect. Some entries that bind do so weakly or less than the wild type. Blank lines part the entries; values can stand above or below the substance they belong to.

Protein sequences, listed by entry. Tags and fused reporters are not part of them. Residues count along the entry.
UniProt Q14BI2, residues 19-872: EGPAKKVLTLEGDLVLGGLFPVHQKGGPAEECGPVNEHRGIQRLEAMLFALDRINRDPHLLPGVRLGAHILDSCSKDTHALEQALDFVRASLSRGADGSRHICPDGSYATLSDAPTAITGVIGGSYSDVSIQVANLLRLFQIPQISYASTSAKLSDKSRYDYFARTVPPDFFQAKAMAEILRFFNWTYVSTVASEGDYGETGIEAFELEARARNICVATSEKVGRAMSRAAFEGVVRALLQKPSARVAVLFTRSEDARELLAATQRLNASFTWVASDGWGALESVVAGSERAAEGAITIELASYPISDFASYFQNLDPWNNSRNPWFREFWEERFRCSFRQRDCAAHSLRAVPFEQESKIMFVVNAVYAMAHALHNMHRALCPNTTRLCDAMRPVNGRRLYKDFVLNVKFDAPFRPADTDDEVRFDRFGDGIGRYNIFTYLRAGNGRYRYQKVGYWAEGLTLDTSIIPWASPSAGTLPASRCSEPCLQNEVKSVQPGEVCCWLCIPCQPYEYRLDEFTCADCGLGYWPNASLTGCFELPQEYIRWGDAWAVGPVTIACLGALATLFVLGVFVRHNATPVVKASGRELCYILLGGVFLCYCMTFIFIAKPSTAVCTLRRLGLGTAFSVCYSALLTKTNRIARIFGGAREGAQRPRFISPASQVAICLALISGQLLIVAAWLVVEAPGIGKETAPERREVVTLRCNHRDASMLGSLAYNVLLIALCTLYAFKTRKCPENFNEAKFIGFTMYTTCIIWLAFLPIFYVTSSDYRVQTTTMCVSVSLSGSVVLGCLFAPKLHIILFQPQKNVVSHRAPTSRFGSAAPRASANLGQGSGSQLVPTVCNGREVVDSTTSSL
UniProt Q9QYS2, residues 23-879: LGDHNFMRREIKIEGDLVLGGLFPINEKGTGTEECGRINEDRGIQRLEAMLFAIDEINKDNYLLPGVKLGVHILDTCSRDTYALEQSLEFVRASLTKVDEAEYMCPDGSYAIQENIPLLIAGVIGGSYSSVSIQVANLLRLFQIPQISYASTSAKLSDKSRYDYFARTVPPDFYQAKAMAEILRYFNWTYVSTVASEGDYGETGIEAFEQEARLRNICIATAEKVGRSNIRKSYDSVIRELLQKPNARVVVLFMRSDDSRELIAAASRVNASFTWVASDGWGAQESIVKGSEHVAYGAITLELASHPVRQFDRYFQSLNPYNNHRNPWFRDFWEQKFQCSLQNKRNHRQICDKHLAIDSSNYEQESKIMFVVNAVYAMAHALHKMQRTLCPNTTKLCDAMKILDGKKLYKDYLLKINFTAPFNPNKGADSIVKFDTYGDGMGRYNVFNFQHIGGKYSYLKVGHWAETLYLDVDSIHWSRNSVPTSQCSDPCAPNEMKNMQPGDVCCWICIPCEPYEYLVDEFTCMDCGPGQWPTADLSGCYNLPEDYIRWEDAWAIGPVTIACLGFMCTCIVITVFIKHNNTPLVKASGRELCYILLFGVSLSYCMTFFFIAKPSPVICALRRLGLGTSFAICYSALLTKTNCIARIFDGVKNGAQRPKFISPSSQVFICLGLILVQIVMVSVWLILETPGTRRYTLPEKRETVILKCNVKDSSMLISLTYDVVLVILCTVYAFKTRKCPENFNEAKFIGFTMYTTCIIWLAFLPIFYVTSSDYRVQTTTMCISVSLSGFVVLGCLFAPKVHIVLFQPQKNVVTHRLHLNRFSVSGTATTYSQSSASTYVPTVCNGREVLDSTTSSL
UniProt Q14416, residues 19-872: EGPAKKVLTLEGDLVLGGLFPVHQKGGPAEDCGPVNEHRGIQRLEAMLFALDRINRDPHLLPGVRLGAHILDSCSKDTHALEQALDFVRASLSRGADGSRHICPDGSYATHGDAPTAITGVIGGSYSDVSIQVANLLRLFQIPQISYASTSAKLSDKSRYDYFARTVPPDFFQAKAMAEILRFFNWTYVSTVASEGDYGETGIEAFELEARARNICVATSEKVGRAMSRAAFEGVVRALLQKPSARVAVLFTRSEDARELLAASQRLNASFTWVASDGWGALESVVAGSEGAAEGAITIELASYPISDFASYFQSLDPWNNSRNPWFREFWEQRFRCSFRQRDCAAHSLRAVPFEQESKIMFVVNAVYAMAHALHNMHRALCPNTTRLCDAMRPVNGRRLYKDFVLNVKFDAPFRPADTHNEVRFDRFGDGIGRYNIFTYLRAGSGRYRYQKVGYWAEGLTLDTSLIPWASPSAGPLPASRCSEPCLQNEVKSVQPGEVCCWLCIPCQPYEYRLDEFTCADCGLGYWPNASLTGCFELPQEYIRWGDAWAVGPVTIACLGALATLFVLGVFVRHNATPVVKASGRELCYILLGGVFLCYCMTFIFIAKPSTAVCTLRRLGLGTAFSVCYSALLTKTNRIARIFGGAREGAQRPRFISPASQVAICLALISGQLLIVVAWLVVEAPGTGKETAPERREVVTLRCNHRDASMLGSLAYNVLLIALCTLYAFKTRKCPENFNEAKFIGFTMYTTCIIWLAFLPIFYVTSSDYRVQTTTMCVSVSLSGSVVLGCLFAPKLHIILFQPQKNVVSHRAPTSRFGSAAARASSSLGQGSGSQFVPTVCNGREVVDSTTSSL
UniProt P12023, residues 18-770: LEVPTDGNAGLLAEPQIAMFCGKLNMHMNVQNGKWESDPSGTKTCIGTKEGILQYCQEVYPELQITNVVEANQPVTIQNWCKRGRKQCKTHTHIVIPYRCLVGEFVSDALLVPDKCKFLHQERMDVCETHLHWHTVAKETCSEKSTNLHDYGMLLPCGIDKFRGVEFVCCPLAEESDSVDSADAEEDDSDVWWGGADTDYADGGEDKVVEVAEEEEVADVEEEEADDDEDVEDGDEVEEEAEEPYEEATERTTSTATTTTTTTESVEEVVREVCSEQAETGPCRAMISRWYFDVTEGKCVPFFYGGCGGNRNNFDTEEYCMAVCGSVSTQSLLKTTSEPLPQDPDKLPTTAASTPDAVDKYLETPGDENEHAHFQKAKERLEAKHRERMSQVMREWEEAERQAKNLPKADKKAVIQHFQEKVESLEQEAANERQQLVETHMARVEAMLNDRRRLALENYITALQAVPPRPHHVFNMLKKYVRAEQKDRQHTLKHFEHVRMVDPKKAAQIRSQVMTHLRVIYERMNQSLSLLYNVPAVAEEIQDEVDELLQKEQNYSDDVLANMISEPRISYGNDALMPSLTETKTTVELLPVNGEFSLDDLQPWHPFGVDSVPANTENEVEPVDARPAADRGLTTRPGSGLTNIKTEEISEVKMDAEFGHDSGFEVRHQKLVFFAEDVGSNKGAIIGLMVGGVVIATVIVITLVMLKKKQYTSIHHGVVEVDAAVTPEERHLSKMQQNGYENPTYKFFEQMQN
UniProt Q14832, residues 23-879: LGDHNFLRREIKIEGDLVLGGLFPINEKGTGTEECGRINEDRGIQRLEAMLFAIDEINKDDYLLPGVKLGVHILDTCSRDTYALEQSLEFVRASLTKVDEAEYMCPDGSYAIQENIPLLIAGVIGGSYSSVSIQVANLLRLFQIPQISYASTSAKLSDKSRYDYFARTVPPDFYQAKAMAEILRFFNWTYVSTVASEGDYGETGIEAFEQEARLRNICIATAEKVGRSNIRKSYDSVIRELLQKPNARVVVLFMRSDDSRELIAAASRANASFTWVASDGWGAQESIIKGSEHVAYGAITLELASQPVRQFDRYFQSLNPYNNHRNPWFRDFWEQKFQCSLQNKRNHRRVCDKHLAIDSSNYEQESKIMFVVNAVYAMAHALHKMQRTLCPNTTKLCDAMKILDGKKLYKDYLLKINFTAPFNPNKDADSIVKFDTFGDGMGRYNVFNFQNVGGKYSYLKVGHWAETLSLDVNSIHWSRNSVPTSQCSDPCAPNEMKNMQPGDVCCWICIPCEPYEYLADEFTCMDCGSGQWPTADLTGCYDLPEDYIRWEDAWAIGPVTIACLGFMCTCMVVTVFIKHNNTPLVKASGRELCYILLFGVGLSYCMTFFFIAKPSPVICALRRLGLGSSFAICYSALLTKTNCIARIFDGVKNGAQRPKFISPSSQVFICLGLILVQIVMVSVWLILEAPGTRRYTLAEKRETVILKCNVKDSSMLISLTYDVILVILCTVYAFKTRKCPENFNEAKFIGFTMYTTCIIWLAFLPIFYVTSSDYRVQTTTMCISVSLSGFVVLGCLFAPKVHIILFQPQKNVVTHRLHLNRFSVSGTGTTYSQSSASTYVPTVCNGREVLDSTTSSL
UniProt P41594, residues 21-1212: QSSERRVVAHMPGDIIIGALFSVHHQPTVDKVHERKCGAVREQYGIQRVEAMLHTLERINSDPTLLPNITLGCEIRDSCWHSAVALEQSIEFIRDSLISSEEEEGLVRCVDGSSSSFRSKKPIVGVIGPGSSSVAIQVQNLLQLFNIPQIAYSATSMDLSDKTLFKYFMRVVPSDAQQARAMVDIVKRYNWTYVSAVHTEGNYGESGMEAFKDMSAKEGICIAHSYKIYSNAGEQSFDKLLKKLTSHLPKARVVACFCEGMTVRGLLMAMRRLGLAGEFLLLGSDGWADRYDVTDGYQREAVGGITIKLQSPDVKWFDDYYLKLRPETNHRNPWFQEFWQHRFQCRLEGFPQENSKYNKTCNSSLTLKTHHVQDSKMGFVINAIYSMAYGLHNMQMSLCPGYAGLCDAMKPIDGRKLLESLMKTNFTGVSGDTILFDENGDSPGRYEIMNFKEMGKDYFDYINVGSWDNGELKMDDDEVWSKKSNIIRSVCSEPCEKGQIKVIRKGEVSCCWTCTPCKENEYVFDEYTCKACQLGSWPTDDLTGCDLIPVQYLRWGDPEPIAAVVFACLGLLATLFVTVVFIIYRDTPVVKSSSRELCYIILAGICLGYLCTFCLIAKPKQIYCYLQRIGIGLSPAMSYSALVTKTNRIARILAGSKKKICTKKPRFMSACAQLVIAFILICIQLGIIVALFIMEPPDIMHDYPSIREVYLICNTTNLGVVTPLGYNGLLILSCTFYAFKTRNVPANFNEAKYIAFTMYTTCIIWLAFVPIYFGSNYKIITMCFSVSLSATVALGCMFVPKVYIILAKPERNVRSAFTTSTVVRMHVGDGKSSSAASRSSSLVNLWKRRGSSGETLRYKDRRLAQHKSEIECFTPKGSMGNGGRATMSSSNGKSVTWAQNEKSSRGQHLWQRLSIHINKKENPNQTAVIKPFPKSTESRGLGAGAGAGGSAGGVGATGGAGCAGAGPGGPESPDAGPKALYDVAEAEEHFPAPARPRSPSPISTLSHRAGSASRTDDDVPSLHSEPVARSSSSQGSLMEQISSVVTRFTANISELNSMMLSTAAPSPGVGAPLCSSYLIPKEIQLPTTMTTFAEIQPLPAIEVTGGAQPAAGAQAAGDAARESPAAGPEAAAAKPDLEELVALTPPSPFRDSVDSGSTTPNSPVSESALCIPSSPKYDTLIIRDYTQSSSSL

Tests used:
[1] = target: endogenous mGluR2 (mouse cortex) (mouse (endogenous in cortex)) (UniProt Q14BI2); experiment: co-IP; immunoprecipitation of the endogenous receptors from WT mouse cortex lysate (1 mg protein; 0.1% SDS, 2% Triton X-100, 2% LMNG) with receptor-specific nanobodies and Ni-NTA agarose beads; washes with 500 mM and 150 mM NaCl; western blot for APP
[2] = target: endogenous mGluR3 (mouse cortex) (mouse (endogenous in cortex)) (UniProt Q9QYS2); experiment: as above
[3] = target: Snap‐tagged APP (UniProt P05067); experiment: FRET or BRET; TR-FRET saturation assay at the surface of living HEK293T cells; fixed amount (20 ng) of the Snap-tagged construct labelled with Snap-Lumi4-Tb (donor), increasing amounts (0 to 160 ng) of the Halo-tagged construct labelled with Halo-red (acceptor); non-cell-permeant reagents
[4] = target: Snap‐tagged human mGluR2 (human) (UniProt Q14416); experiment: as above

- binding [1]: no binding
- binding [2]: binds
Substance: APP (endogenous, mouse cortex) (from UniProt P12023 18-770)

Substance: Halo‐tagged mGluR3 (from UniProt Q14832 23-879) (receptor)
- binding [3]: binds

Substance: Halo‐tagged mGluR5 (from UniProt P41594 21-1212) (receptor)
- binding [4]: no binding
